# Source: the supplement of paper PMC8728848
# Some of the results follow.
# B1: SP15308B-bot-339-22-339 (Bacteroides ovatus) (protein)
# chain: NEWEDEQYEQYVSFKAPIASGSDGVTTIYVRYKDNGKVTYQLPIIVSGSTVNSQDRDIHIAVDKDTLKTLNIERFSLYRPELWYTEMEEDKYEFPETVHIPAGSCVELLNIDFNLQDIDMLEKWVLPLTIVDDGSYAYQSHPRKNYAKALLKVVPFNNYSGSYTASSMKVYTYINGKPDTNARTTDKRTGYVVDNNSIFFYAGLINEDMDKDMRKKYKINVHFKEDGTLDMKQDDPSNEMEFELIGTPTYSSTSVMDATRPYLERRYVQIMFEYDFQDFTYGGSGTEVIPIKYRVAGSMTLLRNINTQIPDEDQQIEW
# What was measured:
# Assay in all cases: glycan array binding signal (z-score within array); higher = stronger binding
# Details in all cases: glycan notation: IUPAC condensed, linker removed
# Neu5Ac(a2-3)Gal = biological target: Neu5Ac(a2-3)Gal
# Method in brief: (§1)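 The binding signal is a Z-score computed within each array and averaged over linkers. Arrays of the same protein sequence at different concentrations or buffers were also averaged together. Data originate from 3228 arrays in the Consortium for Functional Glycomics database, kept only where the protein sequence was available.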
# [1] = biological target: Neu5Ac(a2-3)Gal(b1-3)GalNAc
# Method in brief: as §1
# [2] = biological target: Neu5Ac(a2-3)Gal(b1-3)GalNAc(b1-3)Gal(a1-4)Gal(b1-4)Glc
# Method in brief: as §1
# [3] = biological target: Neu5Ac(a2-3)Gal(b1-3)GalNAc(b1-4)[Neu5Ac(a2-3)]Gal(b1-4)Glc
# Method in brief: as §1
# [4] = biological target: Neu5Ac(a2-3)Gal(b1-3)GalNAc(b1-4)[Neu5Ac(a2-8)Neu5Ac(a2-3)]Gal(b1-4)Glc
# Method in brief: as §1
# [5] = biological target: Neu5Ac(a2-3)Gal(b1-3)GalNAc6S
# Method in brief: as §1
# [6] = biological target: Neu5Ac(a2-3)Gal(b1-3)GlcNAc
# Method in brief: as §1
# [7] = biological target: Neu5Ac(a2-3)Gal(b1-3)GlcNAc(b1-2)Man
# Method in brief: as §1
# [8] = biological target: Neu5Ac(a2-3)Gal(b1-3)GlcNAc(b1-2)Man(a1-3)[GlcNAc(b1-4)][Neu5Ac(a2-3)Gal(b1-3)GlcNAc(b1-2)Man(a1-6)]Man(b1-4)GlcNAc(b1-4)GlcNAc
# Method in brief: as §1
# [9] = biological target: Neu5Ac(a2-3)Gal(b1-3)GlcNAc(b1-2)Man(a1-3)[Neu5Ac(a2-3)Gal(b1-3)GlcNAc(b1-2)Man(a1-6)]Man(b1-4)GlcNAc(b1-4)GlcNAc
# Method in brief: as §1
# [10] = biological target: Neu5Ac(a2-3)Gal(b1-3)GlcNAc(b1-3)Gal(b1-3)GlcNAc
# Method in brief: as §1
# [11] = biological target: Neu5Ac(a2-3)Gal(b1-3)GlcNAc(b1-3)Gal(b1-4)GlcNAc
# Method in brief: as §1
# [12] = biological target: Neu5Ac(a2-3)Gal(b1-3)GlcNAc(b1-3)GalNAc
# Method in brief: as §1
# [13] = biological target: Neu5Ac(a2-3)Gal(b1-3)GlcNAc(b1-4)Gal(b1-4)Glc
# Method in brief: as §1
# [14] = biological target: Neu5Ac(a2-3)Gal(b1-3)GlcNAc(b1-6)GalNAc
# Method in brief: as §1
# [15] = biological target: Neu5Ac(a2-3)Gal(b1-3)GlcNAc6S
# Method in brief: as §1
# [16] = biological target: Neu5Ac(a2-3)Gal(b1-3)[Fuc(a1-4)]GlcNAc
# Method in brief: as §1
# [17] = biological target: Neu5Ac(a2-3)Gal(b1-3)[Fuc(a1-4)]GlcNAc(b1-3)Gal(b1-3)[Fuc(a1-4)]GlcNAc
# Method in brief: as §1
# [18] = biological target: Neu5Ac(a2-3)Gal(b1-3)[Fuc(a1-4)]GlcNAc(b1-3)Gal(b1-4)[Fuc(a1-3)]GlcNAc
# Method in brief: as §1
# [19] = biological target: Neu5Ac(a2-3)Gal(b1-3)[GlcNAc(b1-6)]GalNAc
# Method in brief: as §1
# [20] = biological target: Neu5Ac(a2-3)Gal(b1-3)[Neu5Ac(a2-6)]GalNAc
# Method in brief: as §1
# [21] = biological target: Neu5Ac(a2-3)Gal(b1-3)[Neu5Ac(a2-6)]GlcNAc(b1-3)[Fuc(a1-3)[Gal(b1-4)]GlcNAc(b1-6)]Gal(b1-4)Glc
# Method in brief: as §1
# [22] = biological target: Neu5Ac(a2-3)Gal(b1-3)]Neu5Ac(a2-3)Gal(b1-4)]GlcNAc
# Method in brief: as §1
# Neu5Ac(a2-3)Gal(b1-4)Glc = biological target: Neu5Ac(a2-3)Gal(b1-4)Glc
# Method in brief: as §1
# [23] = biological target: Neu5Ac(a2-3)Gal(b1-4)GlcNAc
# Method in brief: as §1
# [24] = biological target: Neu5Ac(a2-3)Gal(b1-4)GlcNAc(b1-2)Man
# Method in brief: as §1
# [25] = biological target: Neu5Ac(a2-3)Gal(b1-4)GlcNAc(b1-2)Man(a1-3)[GlcNAc(b1-4)][Neu5Ac(a2-3)Gal(b1-4)GlcNAc(b1-2)Man(a1-6)]Man(b1-4)GlcNAc(b1-4)GlcNAc
# Method in brief: as §1
# [26] = biological target: Neu5Ac(a2-3)Gal(b1-4)GlcNAc(b1-2)Man(a1-3)[Neu5Ac(a2-3)Gal(b1-4)GlcNAc(b1-2)Man(a1-6)]Man(b1-4)GlcNAc(b1-4)GlcNAc
# Method in brief: as §1
# [27] = biological target: Neu5Ac(a2-3)Gal(b1-4)GlcNAc(b1-2)Man(a1-3)[Neu5Ac(a2-3)Gal(b1-4)GlcNAc(b1-2)Man(a1-6)]Man(b1-4)GlcNAc(b1-4)[Fuc(a1-6)]GlcNAc
# Method in brief: as §1
# [28] = biological target: Neu5Ac(a2-3)Gal(b1-4)GlcNAc(b1-2)Man(a1-3)[Neu5Ac(a2-6)Gal(b1-4)GlcNAc(b1-2)Man(a1-6)]Man(b1-4)GlcNAc(b1-4)GlcNAc
# Method in brief: as §1
# [29] = biological target: Neu5Ac(a2-3)Gal(b1-4)GlcNAc(b1-2)[Neu5Ac(a2-3)Gal(b1-4)GlcNAc(b1-4)]Man(a1-3)[GlcNAc(b1-4)][Neu5Ac(a2-3)Gal(b1-4)GlcNAc(b1-2)[Neu5Ac(a2-3)Gal(b1-4)GlcNAc(b1-6)]Man(a1-6)]Man(b1-4)GlcNAc(b1-4)GlcNAc
# Method in brief: as §1
# [30] = biological target: Neu5Ac(a2-3)Gal(b1-4)GlcNAc(b1-2)[Neu5Ac(a2-3)Gal(b1-4)GlcNAc(b1-4)]Man(a1-3)[GlcNAc(b1-4)][Neu5Ac(a2-3)Gal(b1-4)GlcNAc(b1-4)Man(a1-6)]Man(b1-4)GlcNAc(b1-4)GlcNAc
# Method in brief: as §1
# [31] = biological target: Neu5Ac(a2-3)Gal(b1-4)GlcNAc(b1-2)[Neu5Ac(a2-3)Gal(b1-4)GlcNAc(b1-6)]Man(a1-6)[Neu5Ac(a2-3)Gal(b1-4)GlcNAc(b1-2)Man(a1-3)]Man(b1-4)GlcNAc(b1-4)GlcNAc
# Method in brief: as §1
# [32] = biological target: Neu5Ac(a2-3)Gal(b1-4)GlcNAc(b1-2)[Neu5Ac(a2-3)Gal(b1-4)GlcNAc(b1-6)]Man(a1-6)[Neu5Ac(a2-3)Gal(b1-4)GlcNAc(b1-2)Man(a1-3)][GlcNAc(b1-4)]Man(b1-4)GlcNAc(b1-4)GlcNAc
# Method in brief: as §1
# [33] = biological target: Neu5Ac(a2-3)Gal(b1-4)GlcNAc(b1-3)Gal
# Method in brief: as §1
# [34] = biological target: Neu5Ac(a2-3)Gal(b1-4)GlcNAc(b1-3)Gal(b1-3)GlcNAc
# Method in brief: as §1
# [35] = biological target: Neu5Ac(a2-3)Gal(b1-4)GlcNAc(b1-3)Gal(b1-4)GlcNAc
# Method in brief: as §1
# [36] = biological target: Neu5Ac(a2-3)Gal(b1-4)GlcNAc(b1-3)Gal(b1-4)GlcNAc(b1-2)Man(a1-3)[Neu5Ac(a2-3)Gal(b1-4)GlcNAc(b1-3)Gal(b1-4)GlcNAc(b1-2)Man(a1-6)]Man(b1-4)GlcNAc(b1-4)GlcNAc
# Method in brief: as §1
# [37] = biological target: Neu5Ac(a2-3)Gal(b1-4)GlcNAc(b1-3)Gal(b1-4)GlcNAc(b1-3)Gal(b1-4)GlcNAc
# Method in brief: as §1
# [38] = biological target: Neu5Ac(a2-3)Gal(b1-4)GlcNAc(b1-3)Gal(b1-4)GlcNAc(b1-3)Gal(b1-4)GlcNAc(b1-2)Man(a1-3)[Neu5Ac(a2-3)Gal(b1-4)GlcNAc(b1-3)Gal(b1-4)GlcNAc(b1-3)Gal(b1-4)GlcNAc(b1-2)Man(a1-6)]GalNAc
# Method in brief: as §1
# [39] = biological target: Neu5Ac(a2-3)Gal(b1-4)GlcNAc(b1-3)Gal(b1-4)GlcNAc(b1-3)GalNAc
# Method in brief: as §1
# [40] = biological target: Neu5Ac(a2-3)Gal(b1-4)GlcNAc(b1-3)Gal(b1-4)GlcNAc(b1-3)[Neu5Ac(a2-3)Gal(b1-4)GlcNAc(b1-3)Gal(b1-4)GlcNAc(b1-6)]GalNAc
# Method in brief: as §1
# [41] = biological target: Neu5Ac(a2-3)Gal(b1-4)GlcNAc(b1-3)Gal(b1-4)GlcNAc(b1-6)[Gal(b1-3)]GalNAc
# Method in brief: as §1
# [42] = biological target: Neu5Ac(a2-3)Gal(b1-4)GlcNAc(b1-3)Gal(b1-4)[Fuc(a1-3)]GlcNAc
# Method in brief: as §1
# [43] = biological target: Neu5Ac(a2-3)Gal(b1-4)GlcNAc(b1-3)GalNAc
# Method in brief: as §1
binder,measurement,setting,value
B1,glycan array binding signal (z-score),Neu5Ac(a2-3)Gal,-0.692
same,glycan array binding signal (z-score),[1],-0.294
same,glycan array binding signal (z-score),[2],0.161
same,glycan array binding signal (z-score),[3],-0.49
same,glycan array binding signal (z-score),[4],-0.13
same,glycan array binding signal (z-score),[5],-0.444
same,glycan array binding signal (z-score),[6],0.259
same,glycan array binding signal (z-score),[7],-0.178
same,glycan array binding signal (z-score),[8],-0.316
same,glycan array binding signal (z-score),[9],-0.211
same,glycan array binding signal (z-score),[10],-0.169
same,glycan array binding signal (z-score),[11],-0.305
same,glycan array binding signal (z-score),[12],-0.054
same,glycan array binding signal (z-score),[13],-0.688
same,glycan array binding signal (z-score),[14],-0.009
same,glycan array binding signal (z-score),[15],-0.245
same,glycan array binding signal (z-score),[16],-0.5
same,glycan array binding signal (z-score),[17],-0.072
same,glycan array binding signal (z-score),[18],-0.187
same,glycan array binding signal (z-score),[19],-0.624
same,glycan array binding signal (z-score),[20],-0.071
same,glycan array binding signal (z-score),[21],0.337
same,glycan array binding signal (z-score),[22],-0.519
same,glycan array binding signal (z-score),Neu5Ac(a2-3)Gal(b1-4)Glc,0.116
same,glycan array binding signal (z-score),[23],0.081
same,glycan array binding signal (z-score),[24],-0.269
same,glycan array binding signal (z-score),[25],-0.644
same,glycan array binding signal (z-score),[26],0.076
same,glycan array binding signal (z-score),[27],0.322
same,glycan array binding signal (z-score),[28],-0.554
same,glycan array binding signal (z-score),[29],-0.547
same,glycan array binding signal (z-score),[30],0.424
same,glycan array binding signal (z-score),[31],0.067
same,glycan array binding signal (z-score),[32],-0.513
same,glycan array binding signal (z-score),[33],-0.261
same,glycan array binding signal (z-score),[34],-0.681
same,glycan array binding signal (z-score),[35],-0.477
same,glycan array binding signal (z-score),[36],-0.361
same,glycan array binding signal (z-score),[37],-0.253
same,glycan array binding signal (z-score),[38],1.14
same,glycan array binding signal (z-score),[39],-0.308
same,glycan array binding signal (z-score),[40],-0.158
same,glycan array binding signal (z-score),[41],-0.412
same,glycan array binding signal (z-score),[42],0.04
same,glycan array binding signal (z-score),[43],-0.232

# In another format: entries from further up.
binder	measurement	setting	value
B1	glycan array binding signal (z-score)	[27]	0.322
same	glycan array binding signal (z-score)	[28]	-0.554

# Quoted at random: 2 entries already listed
binder,measurement,setting,value
B1,glycan array binding signal (z-score),[27],0.322
same,glycan array binding signal (z-score),[2],0.161
